Laboratory results taken from PMC3148254.
Where two headings read alike, the source gives them in different places. No constants are given. Whether binding was seen depends on the method and setting. In cells and extracts the contact can be indirect. Some results given as binding are weak or reduced against the parent protein; the word gives no strength.

Chains of the proteins cited; added tags and fusions are not shown. Residues count along the entry.
UniProt P27512, residues 20-289: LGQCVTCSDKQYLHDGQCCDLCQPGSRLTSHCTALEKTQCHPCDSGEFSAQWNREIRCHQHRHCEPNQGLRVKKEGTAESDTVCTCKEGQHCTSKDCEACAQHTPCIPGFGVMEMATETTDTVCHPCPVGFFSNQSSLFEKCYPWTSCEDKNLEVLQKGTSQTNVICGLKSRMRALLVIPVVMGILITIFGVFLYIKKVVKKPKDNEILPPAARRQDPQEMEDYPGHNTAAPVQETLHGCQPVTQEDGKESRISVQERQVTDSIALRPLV
UniProt Q62210: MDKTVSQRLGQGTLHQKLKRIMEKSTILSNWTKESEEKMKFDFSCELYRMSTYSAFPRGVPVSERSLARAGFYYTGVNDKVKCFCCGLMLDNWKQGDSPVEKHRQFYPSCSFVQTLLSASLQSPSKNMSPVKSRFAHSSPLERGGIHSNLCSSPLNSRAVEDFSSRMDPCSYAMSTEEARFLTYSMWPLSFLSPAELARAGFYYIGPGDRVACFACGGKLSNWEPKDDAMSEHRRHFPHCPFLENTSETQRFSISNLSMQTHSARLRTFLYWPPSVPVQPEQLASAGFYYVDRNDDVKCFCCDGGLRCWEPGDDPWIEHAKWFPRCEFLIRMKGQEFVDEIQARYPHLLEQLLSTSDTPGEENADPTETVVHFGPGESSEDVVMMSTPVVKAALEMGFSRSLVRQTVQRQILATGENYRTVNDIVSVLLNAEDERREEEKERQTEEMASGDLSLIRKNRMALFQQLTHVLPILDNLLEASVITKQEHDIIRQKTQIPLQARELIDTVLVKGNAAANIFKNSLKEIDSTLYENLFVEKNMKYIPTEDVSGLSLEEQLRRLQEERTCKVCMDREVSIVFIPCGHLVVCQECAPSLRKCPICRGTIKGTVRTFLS

B1: TRAF2 (protein, UniProt P39429 1-501)
chain: MAAASVTSPGSLELLQPGFSKTLLGTRLEAKYLCSACKNILRRPFQAQCGHRYCSFCLTSILSSGPQNCAACVYEGLYEEGISILESSSAFPDNAARREVESLPAVCPNDGCTWKGTLKEYESCHEGLCPFLLTECPACKGLVRLSEKEHHTEQECPKRSLSCQHCRAPCSHVDLEVHYEVCPKFPLTCDGCGKKKIPRETFQDHVRACSKCRVLCRFHTVGCSEMVETENLQDHELQRLREHLALLLSSFLEAQASPGTLNQVGPELLQRCQILEQKIATFENIVCVLNREVERVAVTAEACSRQHRLDQDKIEALSNKVQQLERSIGLKDLAMADLEQKVSELEVSTYDGVFIWKISDFTRKRQEAVAGRTPAIFSPAFYTSRYGYKMCLRVYLNGDGTGRGTHLSLFFVVMKGPNDALLQWPFNQKVTLMLLDHNNREHVIDAFRPDVTSSSFQRPVSDMNIASGCPLFCPVSKMEAKNSYVRDDAIFIKAIVDLTGL
B2: TRAF3 (protein, UniProt Q60803 1-567)
chain: MESSKKMDAAGTLQPNPPLKLQPDRGAGSVLVPEQGGYKEKFVKTVEDKYKCEKCRLVLCNPKQTECGHRFCESCMAALLSSSSPKCTACQESIIKDKVFKDNCCKREILALQVYCRNEGRGCAEQLTLGHLLVHLKNECQFEELPCLRADCKEKVLRKDLRDHVEKACKYREATCSHCKSQVPMIKLQKHEDTDCPCVVVSCPHKCSVQTLLRSELSAHLSECVNAPSTCSFKRYGCVFQGTNQQIKAHEASSAVQHVNLLKEWSNSLEKKVSLLQNESVEKNKSIQSLHNQICSFEIEIERQKEMLRNNESKILHLQRVIDSQAEKLKELDKEIRPFRQNWEEADSMKSSVESLQNRVTELESVDKSAGQAARNTGLLESQLSRHDQMLSVHDIRLADMDLRFQVLETASYNGVLIWKIRDYKRRKQEAVMGKTLSLYSQPFYTGYFGYKMCARVYLNGDGMGKGTHLSLFFVIMRGEYDALLPWPFKQKVTLMLMDQGSSRRHLGDAFKPDPNSSSFKKPTGEMNIASGCPVFVAQTVLENGTYIKDDTIFIKVIVDTSDLPDP

How the values were obtained:
[1] = biological target: CD40 (mouse (endogenous in A20.2J)) (UniProt P27512); assay: co-IP; activated receptor capture: 3x10^7 cells (A20.2J, HOIP-deficient or HOIP-reconstituted) incubated 60 min at room temperature with magnetic protein G beads coated with goat anti-rat IgG and anti-CD40 (1C10), lysed in 1% Triton X100, beads washed, Western blot; in some experiments cells pretreated 6 h with 25 µM SMAC-N7 peptide or DMSO
[2] = biological target: CD40 (mouse (endogenous in A20.2J)) (UniProt P27512); assay: as above; remark: listed apart in the source

Molecule	binding [1]	binding [2]
cIAP1 (from UniProt Q62210 1-612)	binds	–
B1	–	binds
B2	–	binds
